Measurements as given in paper PMC5342753.
Results are given in words; binding and its absence hold for the method and conditions named. Binding seen in cells or lysates may run through a third protein. Some binding calls cover weakened binding; strength is not graded here.

Amino acid sequences for entries named in this document (tags omitted).
UniProt P07948: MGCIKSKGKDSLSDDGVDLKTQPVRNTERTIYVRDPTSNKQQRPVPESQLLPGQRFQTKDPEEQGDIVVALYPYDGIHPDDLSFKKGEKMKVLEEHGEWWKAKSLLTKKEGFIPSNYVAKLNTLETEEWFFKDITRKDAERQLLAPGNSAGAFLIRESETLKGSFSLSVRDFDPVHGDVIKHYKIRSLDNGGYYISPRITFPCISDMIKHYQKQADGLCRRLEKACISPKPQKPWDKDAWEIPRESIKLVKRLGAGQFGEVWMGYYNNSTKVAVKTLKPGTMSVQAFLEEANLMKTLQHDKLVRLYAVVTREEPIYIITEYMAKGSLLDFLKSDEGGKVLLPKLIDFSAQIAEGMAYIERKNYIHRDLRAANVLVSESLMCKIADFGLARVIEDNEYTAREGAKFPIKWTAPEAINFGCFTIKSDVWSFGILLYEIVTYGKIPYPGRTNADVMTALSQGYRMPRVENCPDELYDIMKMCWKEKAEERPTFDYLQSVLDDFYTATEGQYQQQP
UniProt P40763: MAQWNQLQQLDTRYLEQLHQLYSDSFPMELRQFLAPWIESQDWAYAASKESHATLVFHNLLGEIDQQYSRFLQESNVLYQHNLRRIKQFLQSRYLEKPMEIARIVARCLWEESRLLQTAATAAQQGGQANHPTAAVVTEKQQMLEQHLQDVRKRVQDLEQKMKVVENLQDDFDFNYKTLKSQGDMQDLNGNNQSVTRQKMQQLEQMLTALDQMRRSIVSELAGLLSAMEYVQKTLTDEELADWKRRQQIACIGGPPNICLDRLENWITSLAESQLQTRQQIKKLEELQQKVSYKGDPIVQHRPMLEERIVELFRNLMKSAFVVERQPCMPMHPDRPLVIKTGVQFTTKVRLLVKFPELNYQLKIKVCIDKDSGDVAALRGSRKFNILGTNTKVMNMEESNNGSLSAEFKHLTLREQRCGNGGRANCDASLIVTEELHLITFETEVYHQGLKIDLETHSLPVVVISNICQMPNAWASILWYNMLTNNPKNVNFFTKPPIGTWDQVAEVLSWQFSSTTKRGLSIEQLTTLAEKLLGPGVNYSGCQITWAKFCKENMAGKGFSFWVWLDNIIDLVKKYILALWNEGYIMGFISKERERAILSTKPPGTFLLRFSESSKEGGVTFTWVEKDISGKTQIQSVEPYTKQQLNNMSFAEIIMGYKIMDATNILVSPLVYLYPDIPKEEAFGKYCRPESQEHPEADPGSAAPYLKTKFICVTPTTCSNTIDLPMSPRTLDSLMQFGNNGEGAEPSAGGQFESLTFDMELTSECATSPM

Target: LYN-HA (UniProt P07948)
Assay: co-IP; P-STAT3-Flag and LYN-HA co-transfected into SiHa cells, collected after 24 h; lysed in RIPA buffer with phosphatase/protease inhibitors; precipitated with anti-HA tag antibody on Protein A+G Sepharose beads at 4°C; blot with anti-Flag tag antibody

How did the binding turn out when “P-STAT3-Flag (from UniProt P40763 1-770)” was run?
The binding was “binds”.
